# Where a name gives a salt, the structure may show the parent alone. The list shows a part of the results. Single values are uncertain here, since repeats match poorly.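 JEG3 cells stably express tetracycline-inducible wild-type human LRH-1, a highly sumoylated nuclear receptor. SUMO-sensitive transcripts APOC3 and MUC1, increased by SUMO-deficient LRH-1 or UBC9 knockdown, were quantified by RT-qPCR relative to TBP and DMSO controls. Primary hits had robust Z-scores above +2 or below -2, before toxicity and TBP filtering.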
# System: JEG3 expressing hLRH-1
# Experiment: MUC1 transcript change (ddCt vs TBP and DMSO), Z-score over library; higher = higher MUC1 expression
# Conditions: 10 µM; time (hr): 24
row,SMILES,MUC1 transcript change (Z-score)
1,c1ccc2c(CC3=NCCN3)cccc2c1 [naphazoline hydrochloride],-0.163
2,CN[C@@H]1[C@H](O)[C@H](NC)[C@H]2O[C@@]3(O)C(=O)C[C@@H](C)O[C@H]3O[C@@H]2[C@H]1O [spectinomycin hydrochloride],0.689
3,CC(=O)NCCCS(=O)(=O)[O-]->[Ca+2]<-[O-]S(=O)(=O)CCCNC(C)=O [acamprosate calcium],0.277
4,COC(=O)/C=C/C(=O)OC [dimethyl fumarate],-0.0709
5,OC(CNCC(O)C1CCc2cc(F)ccc2O1)C1CCc2cc(F)ccc2O1 (stereo not given) [nebivolol hydrochloride],0.5
6,O=C(NCc1ccccc1)OCCO [buramate],0.672
7,N=C(N)/N=C(\N)NCCc1ccccc1 [phenformin hydrochloride],-0.622
8,CN(C)CCCN1c2ccccc2Sc2ccc(C(F)(F)F)cc21 [triflupromazine hydrochloride],-0.426
9,S=P(N1CC1)(N1CC1)N1CC1 [thiotepa],-0.0352
10,N[C@@H](Cc1cc(I)c(Oc2ccc(O)c(I)c2)c(I)c1)C(=O)O [liothyronine sodium],0.291
11,CCN(CC)C(=O)C1(c2ccccc2)CC1CN (stereo not given) [milnacipran hydrochloride],-0.618
12,Cc1cc(C(C)(C)CC(C)(C)C)cc(Cc2cc(C(C)(C)CC(C)(C)C)cc(Cc3cc(C(C)(C)CC(C)(C)C)ccc3OCCO)c2OCCO)c1OCCO [tyloxapol],-0.283
13,CC(=O)Oc1ccc(C(c2ccc(OC(C)=O)cc2)c2ccccn2)cc1 [bisacodyl],0.853
14,CCC(C)C(N)C1=NC(C(=O)NC(CC(C)C)C(=O)NC(CCC(=O)O)C(=O)NC(C(=O)NCCCCC2NC(=O)C(CC(N)=O)NC(=O)C(CC(=O)O)NC(=O)C(Cc3c[nH]cn3)NC(=O)C(Cc3ccccc3)NC(=O)C(C(C)CC)NC(=O)C(CCCN)NC2=O)C(C)CC)CS1 (stereo not given) [bacitracin],0.0679
15,CC(C)NCC(O)COc1ccc(CC(N)=O)cc1 (racemic) [(±)-Atenolol],0.0687
16,CCN(CC)CCNC(C(=O)OCCC(C)C)c1ccccc1 (stereo not given) [camylofine dihydrochloride],-0.628
17,C[N+]1(C)C2CC[C@H]1C[C@@H](OC(=O)C(O)c1ccccc1)C2 (stereo not given in full) [homatropine methylbromide],-1
18,O=C(/C=C/C=C/c1ccc2c(c1)OCO2)N1CCCCC1 [piperine],0.459
19,OC(CCN1CCCC1)(c1ccccc1)C1CCCCC1 (stereo not given) [procyclidine hydrochloride],-0.582
20,Nc1nc(O)c2c(CCc3ccc(C(=O)N[C@@H](CCC(=O)O)C(=O)O)cc3)c[nH]c2n1 [pemetrexed],0.923
21,CC1(C)NC(=O)N(c2ccc([N+](=O)[O-])c(C(F)(F)F)c2)C1=O [nilutamide],-0.173
22,C[N+](C)(C)CC(=O)O [betaine hydrochloride],0.7
23,O=C1C(CCS(=O)c2ccccc2)C(=O)N(c2ccccc2)N1c1ccccc1 (stereo not given) [sulfinpyrazone],1.15
24,CS(=O)(=O)c1ccc(C2=C(c3ccccc3)C(=O)OC2)cc1 [rofecoxib],0.781

row,SMILES,MUC1 transcript change (Z-score)
1,C[C@]12CC[C@@H]3c4ccc(OC(=O)c5ccccc5)cc4CC[C@H]3[C@@H]1CC[C@@H]2O [estradiol benzoate],-0.498
2,CC(=O)OC(C)C[N+](C)(C)C (stereo not given) [methacholine chloride],0.586
3,Fc1ccc(C(c2ccc(F)cc2)N2CCN(C/C=C/c3ccccc3)CC2)cc1 [Flunarizine dihydrochloride],0.85
4,C[C@H](N)[C@H](O)c1cccc(O)c1 [metaraminol bitartrate],-0.831
5,CC(=O)OCC(=O)[C@@]1(O)CCC2C3CCC4=CC(=O)C=CC4(C)C3[C@@H](O)C[C@@]21C (stereo not given in full) [prednisolone acetate],-0.759
6,COc1ccc(OC)c(C(O)CNC(=O)CN)c1 (stereo not given) [midodrine hydrochloride],0.557
7,CC1(C)S[C@@H]2[C@H](NC(=O)C(C(=O)O)c3ccccc3)C(=O)N2[C@H]1C(=O)O (stereo not given in full) [carbenicillin disodium],1.13
8,OCCN1CCN(CCCN2c3ccccc3Sc3ccc(Cl)cc32)CC1 [perphenazine],1.14
9,N=C(N)N [guanidine carbonate],0.65
10,Cc1ccccc1OCC(O)CO (stereo not given) [mephenesin],-0.522
11,COc1ccc(C[C@H](N)C(=O)N[C@@H]2[C@@H](CO)OC(n3cnc4c(N(C)C)ncnc43)[C@@H]2O)cc1 (stereo not given in full) [puromycin hydrochloride],-1.42
12,CN[C@@H]1[C@@H](O)[C@@H](O[C@@H]2[C@@H](O)[C@H](O[C@H]3OC(CN)=CC[C@H]3N)[C@@H](N)C[C@H]2N)OC[C@]1(C)O [sisomicin sulfate],0.664
13,CCC(=O)Oc1ccc2c(c1)CC[C@@H]1[C@@H]2CC[C@]2(C)[C@@H](OC(=O)CC)CC[C@@H]12 [estradiol dipropionate],-0.214
14,CC(C)OC(=O)CCC/C=C\C[C@@H]1[C@@H](/C=C/[C@@H](O)COc2cccc(C(F)(F)F)c2)[C@H](O)C[C@@H]1O [travoprost],-0.566
15,CN(C)CCC=C1c2ccccc2CCc2ccccc21 [Amitriptyline hydrochloride],-0.809
16,CN(C)C(=O)C(CCN1CCC(O)(c2ccc(Cl)cc2)CC1)(c1ccccc1)c1ccccc1 [Loperamide hydrochloride],-0.252
17,CCCCNc1cc(C(=O)O)cc(S(N)(=O)=O)c1Oc1ccccc1 [bumetanide],0.0101
18,CC1(C)O[C@@H]2C[C@H]3[C@@H]4CCC5=CC(=O)C=C[C@]5(C)[C@H]4[C@@H](O)C[C@]3(C)[C@]2(C(=O)CO)O1 [desonide],-1.65
19,CNC(C)[C@@H]1CC[C@@H](N)[C@@H](OC2[C@@H](N)C[C@@H](N)[C@H](OC3OC[C@](C)(O)[C@H](NC)[C@H]3O)[C@H]2O)O1 (stereo not given in full) [gentamicin sulfate],-0.567
20,C[C@]12CCC3c4ccc(O)cc4CCC3C1CCC2=O (stereo not given in full) [estrone],0.0957
21,COC(=O)Nc1nc2cc(C(=O)c3ccccc3)ccc2[nH]1 [mebendazole],-1.94
22,CCN(CC)C(=S)SSC(=S)N(CC)CC [disulfiram],-0.38
23,Cc1cccc(CN2CCN(C(c3ccccc3)c3ccc(Cl)cc3)CC2)c1 (stereo not given) [meclizine hydrochloride],1.25
24,Nc1c(Br)cc(Br)cc1CNC1CCC(O)CC1 (stereo not given) [ambroxol hydrochloride],0.707

row,SMILES,MUC1 transcript change (Z-score)
1,CN(C)[C@@H]1C(=O)C(C(N)=O)=C(O)[C@@]2(O)C(=O)C3=C(O)c4c(O)ccc(Cl)c4[C@@H](O)[C@H]3C[C@@H]12 [demeclocycline hydrochloride],-0.105
2,C[C@H]1COc2c(N3CCN(C)CC3)c(F)cc3c(=O)c(C(=O)O)cn1c23 [levofloxacin],0.384
3,COC1=CC(=O)C[C@@H](C)[C@]12Oc1c(Cl)c(OC)cc(OC)c1C2=O [griseofulvin],1.2
4,CCOc1nc2cccc(C(=O)O)c2n1Cc1ccc(-c2ccccc2-c2nn[nH]n2)cc1 [candesartan],0.24
5,CCOC(=O)N1CCC(=C2c3ccc(Cl)cc3CCc3cccnc32)CC1 [loratadine],-0.549
6,CC[C@H]1OC(=O)C[C@@H](O)[C@H](C)[C@@H](O[C@@H]2O[C@H](C)[C@@H](O[C@H]3C[C@@](C)(O)[C@@H](O)[C@H](C)O3)[C@H](N(C)C)[C@H]2O)[C@@H](CC=O)C[C@@H](C)C(=O)/C=C/C(C)=C/[C@@H]1CO[C@@H]1O[C@H](C)[C@@H](O)[C@@H](OC)[C@H]1OC [tylosin tartrate],0.555
7,Cn1nnnc1SCC1=C(C(=O)O)N2C(=O)C(NC(=O)C(OC=O)c3ccccc3)C2SC1 (stereo not given) [cefamandole nafate],0.0511
8,CCCCCN(CCCCC)C(=O)C(CCC(=O)O)NC(=O)c1ccc(Cl)c(Cl)c1 (stereo not given) [Lorglumide sodium],0.931
9,CC[C@@H]1C(=O)OC[C@@H]1Cc1cncn1C [(+)-Pilocarpine hydrochloride],0.286
10,CCS(=O)(=O)CCn1c([N+](=O)[O-])cnc1C [tinidazole],0.453
11,COc1ncnc(NS(=O)(=O)c2ccc(N)cc2)c1OC [sulfadoxine],-1.02
12,CC1=C(/C=C/C(C)=C/C=C/C(C)=C/C=C/C=C(C)/C=C/C=C(C)/C=C/C2=C(C)CCCC2(C)C)C(C)(C)CCC1 [beta-carotene],0.596
13,COc1ccc(C(=O)c2ccccc2)c(O)c1 [oxybenzone],-1.17
14,CN1C2CCCC1CC(NC(=O)c1nn(C)c3ccccc13)C2 (stereo not given) [granisetron hydrochloride],0.38
15,CCCC1O[C@@H]2C[C@H]3[C@@H]4CCC5=CC(=O)C=C[C@]5(C)[C@H]4[C@@H](O)C[C@]3(C)[C@]2(C(=O)CO)O1 (stereo not given in full) [budesonide],-0.831
16,Clc1ccccc1CN1CCc2sccc2C1 [ticlopidine hydrochloride],0.297
17,CN1C2CC[C@H]1C[C@@H](OC(=O)C(O)c1ccccc1)C2 (stereo not given in full) [homatropine bromide],0.627
18,OCC(O)CN1CCN(c2ccccc2)CC1 (stereo not given) [dropropizine],0.332
19,CN(C/C=C/c1ccccc1)Cc1cccc2ccccc12 [naftifine hydrochloride],-0.539
20,CC(COc1ccccc1)N(CCCl)Cc1ccccc1 (stereo not given) [Phenoxybenzamine hydrochloride],-2.55
21,CC(=O)[C@H]1CCC2C3C=CC4=CC(=O)CC[C@@]4(C)C3CC[C@@]21C (stereo not given in full) [dydrogesterone],0.0836
22,CN1C(=O)OC(C)(C)C1=O [trimethadione],0.543

# 3 of the compounds above, tab-delimited.
row	SMILES	MUC1 transcript change (Z-score)
3	CC(=O)NCCCS(=O)(=O)[O-]->[Ca+2]<-[O-]S(=O)(=O)CCCNC(C)=O [acamprosate calcium]	0.277
4	COC(=O)/C=C/C(=O)OC [dimethyl fumarate]	-0.0709
5	OC(CNCC(O)C1CCc2cc(F)ccc2O1)C1CCc2cc(F)ccc2O1 (stereo not given) [nebivolol hydrochloride]	0.5
